According to PubChem BioAssay AID662 (National Center for Advancing Translational Sciences (NCATS), 2007):
The list shows a part of the results. Shown are side measurements of this screen, not its main read-out; they come without a call. Most of these compounds were active or inconclusive in the main read-out, so they are no random draw. The note in brackets gives the kind of curve behind each potency; many fits are weak.

Assay: Cell signaling CRE-BLA (Fsk stim)
Settings: CHO CRE-bla reporter (cAMP response element driving beta-lactamase), forskolin EC10, beta-lactamase ratio; measured here: 460 nm blue channel
Procedure, shortened: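 Using CellSensor CRE-bla CHO cells in Opti-MEM with 0.5% dialyzed FBS, compounds were titrated with EC10 NKH 477 for 3 h at 37 °C. CCF4 ratio (460/530 nm) gave %Activity; AC50 derived.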

Compound	AC50
COc1cc(NC(=O)C2CCN(S(=O)(=O)c3cccc4nonc34)CC2)cc(OC)c1	0.0251 µM [falling, full curve, poor fit]
COc1ccc(-c2nc3cnc(OC)nc3n(CCC#N)c2=O)cc1	12.6 µM [rising, partial curve]
COC(=O)c1ccc(CSc2nnnn2-c2ccccc2)o1	0.398 µM [falling, full curve]
CCOC(=O)CNC(=O)CSc1nc(N(C)C)nc(N2CCOCC2)n1	25.1 µM [rising, single point]
COc1ccc(C)cc1NC(=O)CSc1nnc(COc2ccc(Cl)cc2)n1Cc1ccco1	0.316 µM [falling, full curve, poor fit]
CN/S(=N/S(=O)(=O)c1ccccc1)c1ccc(C)cc1 (centres undefined)	3.16 µM [falling, single point]
Cc1ccc(-n2cccc2C(=S)N=P(N(C)C)(N(C)C)N(C)C)cc1	5.01 µM [falling, single point]
CC(C)C(CO)NC(=O)CC(=O)NC(CO)C(C)C (centres undefined)	0.398 µM [rising, partial curve, poor fit]
CC(=O)Nc1sc2c(c1C#N)CCCCC2	10 µM [rising, single point]
O=C(c1cc2nc(-c3ccco3)cc(C(F)(F)F)n2n1)N1CCc2ccccc2C1	10 µM [rising, partial curve]
CCOC(=O)c1cc2sccc2n1CCCN1C(=O)c2ccccc2C1=O	10 µM [rising, partial curve]
CCCCOc1ncnc2c1[nH]c1ccc(F)cc12	10 µM [rising, partial curve]
O=C(CCN1CCCC1)Nc1cccc(Br)c1	12.6 µM [falling, partial curve]
Cn1cnc2c1c(=O)n(Cc1cccc(Br)c1)c(=O)n2C	25.1 µM [rising, single point]
Cc1cc(C)n(CCO)c(=O)n1	2 µM [falling, partial curve]
COc1ccccc1N1CCN(C(=O)c2cc(-c3cccs3)on2)CC1	0.126 µM [falling, full curve]
COc1cccc(C2=NOC(C(=O)NCc3ccco3)C2)c1 (centres undefined)	5.01 µM [falling, single point]
CCN(CC)P1(=O)OC(c2cc(OC)c(OC)c(OC)c2)=Nc2c1c(C)nn2-c1ccccc1 (centres undefined)	25.1 µM [rising, single point]
Cc1cc(NC(=O)Cn2c(=O)c3c(ncn3CCC(C)C)n(Cc3ccccc3)c2=O)no1	5.01 µM [falling, single point]
N=c1sc2ccccc2n1-c1ccccc1	12.6 µM [rising, partial curve]
CN(C)c1ncc2nc(-c3cc(F)cc(F)c3)c(=O)n(CCc3ccccc3)c2n1	5.01 µM [rising, partial curve]
C=CCc1cc(C(=O)N2CCCCC2)ccc1O	7.94 µM [falling, partial curve]
CCCC1CC(c2csc(N)n2)CCO1 (centres undefined)	12.6 µM [falling, single point]

Some of the entries so far, bar-delimited:
Compound | AC50
CCOC(=O)c1cc2sccc2n1CCCN1C(=O)c2ccccc2C1=O | 10 µM [rising, partial curve]
CN(C)c1ncc2nc(-c3cc(F)cc(F)c3)c(=O)n(CCc3ccccc3)c2n1 | 5.01 µM [rising, partial curve]

(continued)

Compound	AC50
CCOC(=O)CC(=O)c1cc(OC)c(OC)c(OC)c1	5.01 µM [rising, partial curve]
Oc1ccc(Nc2nc(-c3ccc(O)cc3)cs2)cc1	15.8 µM [falling, partial curve]
Cn1nnnc1SCC(=O)Nc1cc(C(C)(C)C)nn1-c1ccccc1	5.01 µM [falling, single point]
Cn1c(-c2ccc(C(=O)c3ccccc3)s2)nc2ccccc21	2 µM [rising, full curve]
COc1cc(NC(=O)c2cccc(Cl)c2)c(OC)cc1NC(=O)CN1CCOCC1	5.01 µM [rising, full curve]
CCOC(=O)C(NC(=O)CC)(Nc1ccc(S(=O)(=O)Nc2cc(C)on2)cc1)C(F)(F)F (centres undefined)	25.1 µM [rising, single point]
COCCNC(=O)COc1ccc(C)c(C)c1	0.631 µM [falling, full curve, poor fit]
Cc1nn(-c2ccccc2)c2c1C(O)n1c(nc3ccccc31)S2 (centres undefined)	5.01 µM [falling, single point]
CCCS(=O)(=O)N1CCC(C(=O)NCCN(C)Cc2ccccc2)CC1	0.00398 µM [falling, full curve, poor fit]
CC(=O)c1cc(-c2ccc(F)cc2)n(CC(=O)NCc2cccs2)c1C	2.51 µM [falling, full curve]
CCCC1=C(C(=O)OCC)C(c2ccc(N(C)C)cc2)n2ncnc2N1 (centres undefined)	15.8 µM [rising, partial curve]
O=C(/C=N/O)NCc1ccncc1	12.6 µM [falling, partial curve, poor fit]
NC(=O)c1oc2ccccc2c1NC(=O)c1ccc(F)cc1	3.16 µM [rising, partial curve]
O=C(CN1CCN(c2ccccn2)CC1)Nc1ccc(Oc2ccccc2)cc1	0.0158 µM [falling, full curve]
O=C1C(=O)c2ccccc2C(O)=C1C(CCc1ccccc1)C1=C(O)c2ccccc2C(=O)C1=O	5.01 µM [rising, single point]
CCNc1ncc2nc(-c3cccs3)c(=O)n(Cc3cccc(OC)c3)c2n1	5.01 µM [rising, partial curve]
CCOc1ccc(OCC)c(NC(=O)CSc2nc3ccccc3c(=O)n2C)c1	3.98 µM [rising, full curve]
CCOC(=O)c1sc(NC(=O)CCn2nnc3ccccc32)c(C(=O)OCC)c1C	2.51 µM [rising, full curve]
NS(=O)(=O)c1ccc(CCNC(=O)COC(=O)C2CCCN2C(=O)c2cccs2)cc1 (centres undefined)	3.16 µM [falling, single point]
Cc1cccc(CNc2ccnc(-c3ccoc3)n2)c1	5.01 µM [rising, single point]
CCCCn1c(NCc2ccccn2)nc2ccccc21	1.58 µM [falling, partial curve]
Cc1cc(C)c(Cn2c(=O)n(CCCC(=O)NCc3ccco3)c(=O)c3ccccc32)c(C)c1	25.1 µM [rising, single point]
COCC(=O)Nc1nnc(Cc2ccc(OC)c(OC)c2)s1	12.6 µM [rising, partial curve]

Compound	AC50
CSc1nc(-c2ccccc2)nc2c1COC(C)(C)C2	12.6 µM [rising, single point]
O=C(c1csnn1)N1CCC[C@@]2(CCN(c3ccccn3)C2)C1	0.398 µM [falling, single point]
O=C(Oc1ccccc1)N1CCC2(CC1)CN(c1ccccn1)C2	12.6 µM [falling, single point]
CCCCN(C)C(=O)c1sc2ncn(CC)c(=O)c2c1C	5.01 µM [rising, full curve]
CC(=O)Nc1ccc(N2C(=O)CSC2c2ccc(F)cc2)cc1 (centres undefined)	1 µM [rising, full curve]
Cc1c(C(=O)N2CCOCC2)sc2ncnc(N3CCc4ccccc4C3)c12	0.2 µM [rising, full curve]
O=c1c(-c2ccc(F)cc2)nc2cnc(Nc3ccccc3)nc2n1C1CC1	6.31 µM [rising, partial curve, poor fit]
CCCn1c(CCC(=O)O)ccc1-c1ccc(F)cc1	12.6 µM [rising, partial curve, poor fit]
COc1cc(NC(=O)c2cccs2)c(C(=O)OCC(=O)NCc2ccco2)cc1OC	3.16 µM [rising, single point]
COc1ccc(CNc2nc3c(c(=O)n(Cc4ccc(Cl)cc4)c(=O)n3C)n2C)cc1	3.98 µM [falling, full curve]
CCn1cc(C(=O)NCC2COc3ccccc3O2)c2cc(OC)c(OC)cc2c1=O (centres undefined)	10 µM [rising, partial curve]
COc1ccc(CCNC(=O)c2ccco2)cc1	0.00398 µM [falling, full curve]
CCC(=O)Nc1c(OC(=O)CC)ccc2c(C)cc(=O)oc12	25.1 µM [rising, single point]
COc1ccc(C(=O)Nc2ccc3c(c2)OCO3)cc1OC	10 µM [rising, partial curve]
COc1ccc(NC(=O)CC2C(=O)N(c3cccc(OC)c3)C(=O)N2C2CCCCC2)cc1 (centres undefined)	0.0794 µM [falling, full curve, poor fit]
Cn1c(-c2ccc(F)cc2)cnc1SCC(=O)N1CCCCC1	25.1 µM [rising, single point]
Cc1ccc2c(c1)cc(CN(Cc1cccs1)C(=O)c1ccco1)c1nnnn12	7.94 µM [rising, partial curve]
Cc1cc(N2CCN(c3ccccn3)CC2)n2c(nc3ccccc32)c1C#N	1.58 µM [rising, full curve]
O=c1c(-c2ccccc2)nc2cnc(N3CCNCC3)nc2n1C1CC1	12.6 µM [rising, partial curve]
Cc1c(NC(=O)c2ccccc2F)c(=O)n(-c2ccccc2)n1C	5.01 µM [falling, single point]
O[C@@H]1C2CCCC1[C@]1(O)CCCCC1C2 (some centres undefined)	20 µM [rising, single point]
O=C(OCC1COc2ccccc2O1)c1c(F)cccc1F (centres undefined)	1.26 µM [falling, partial curve, poor fit]
CC(C)n1nc(C(=O)NCCc2ccc(S(N)(=O)=O)cc2)c2ccccc2c1=O	20 µM [rising, partial curve]
